Results on 6 molecules are retold here after US7560259B2, “Glutathione S-transferase sequence variants” (Mayo Foundation for Medical Education and Research, priority 2005, dated 2009).

The data set has as its system COS-1 cells. The data set is described as follows: Quantitative Western blot of GSTO2 immunoreactive protein after transient expression in COS-1 cells. The format is cell-based. To be noted: for GSTO2 immunoreactive protein levels: COS-1 cells transiently transfected, corrected for beta-galactosidase, WT = 100; for expression level relative to the level of the WT allozyme / allozyme level after transient expression (in words): transient expression in COS-1 cells. An excerpt:
Recombinant GSTO2 Expression Constructs and Allozyme Expression: A WT GSTO2 cDNA open reading frame (ORF) sequence was amplified from a pooled human liver cDNA library (Clontech, Mountain View, Calif.). Expression constructs for the nonsynonymous cSNPs observed during the resequencing studies were generated by site-directed mutagenesis using “circular PCR.” Sequences of the site-directed mutagenesis primers are listed in Table 1. Site-directed mutagenesis amplification reactions contained 1 U of Pfu Turbo DNA polymerase (Stratagene, La Jolla, Calif.) in a final volume of 25 μl, 10 μmol of primers, 0.24 mM dNTPs, and 2.5 μl of 10×PCR buffer. The sequences of expression constructs were confirmed by sequencing in both directions after cloning into the eukaryotic expression vector pCR3.1 (Invitrogen, Carlsbad, Calif.).
WT and variant GSTO2 expression constructs were transfected into COS-1 cells, together with pSV-β-galactosidase DNA (Promega) to make it possible to use β-galactosidase activity to correct for transfection efficiency. Transfections were performed with Lipofectamine 2000 (Invitrogen), and the cells were cultured for 48 hours in Dulbecco's modified Eagles medium (DMEM; Bio Whittaker, Walkersville, Md.) with 10% fetal bovine serum (Clontech). Cells were homogenized with a Polytron homogenizer (Brinkmann Instruments, Westbury, N.Y.). The homogenates were centrifuged at 100,000×g for 1 hour; and supernatant preparations were stored at −80° C.
Western Blot Analysis: Rabbit polyclonal antibodies were generated to GSTO2 (Cocalico Biologicals, Reamstown, Pa.) using a polypeptide that corresponded to amino acids 10 to 30, with an additional cysteine residue at the amino terminus. This synthetic polypeptide was conjugated to keyhole limpet hemocyanin prior to immunization of rabbits. For quantitative Western blot analysis, cytosol preparations of COS-1 cells transfected with the expression constructs were loaded on a 12% polyacrylamide gel on the basis of β-galactosidase activity to correct for possible variation in transfection efficiency. After SDS-PAGE, the proteins were transferred to a nitrocellulose membrane that was probed with rabbit antiserum to GSTO2, diluted 1:2000 with “blocking buffer.” Goat anti-rabbit horseradish peroxidase, diluted 1:20,000, was used as the secondary antibody. Bound antibody was detected with the ECL Western blotting system (Amersham Pharmacia Biotech, Piscataway, N.J.). The level of immunoreactive protein was quantitated using IP Gel Lab (Biosystemetica, Plymouth, UK).
As an initial step in the study of the possible functional implications of nonsynonymous cSNPs in the GSTO2 gene, expression constructs were created for all variant allozymes, and those constructs were used to transfect COS-1 cells. This mammalian cell line was transfected to ensure the presence of mammalian post-translational modification and the mammalian machinery for protein degradation. The GSTO2 expression constructs were cotransfected with β-galactosidase to make it possible to correct for variations in transfection efficiency. […] The Val41Ile and Asn142Asp allozymes were expressed at approximately 80% of the level of the WT allozyme (Table 10). The GSTO2 antibody cross-reacted with a protein in the COS-1 cells with a molecular mass slightly higher than that for recombinant GSTO2.
(A western blot detects proteins with antibodies after separation by electrophoresis.)

Substitutions are numbered along the chain they refer to.

B1: Val41Ile: GSTO2 allozyme having an isoleucine at amino acid residue 41 in place of valine (protein)
chain: MSGDATRTLGKGSQPPGPVPEGLIRIYSMRFCPYSHRTRLILKAKDIRHEVVNINLRNKPEWYYTKHPFGHIPVLETSQCQLIYESVIACEYLDDAYPGRKLFPYDPYERARQKMLLELFCKVPHLTKECLVALRCGRECTNLKAALRQEFSNLEEILEYQNTTFFGGTCISMIDYLLWPWFERLDVYGILDCVSHTPALRLWISAMKWDPTVCALLMDKSIFQGFLNLYFQNNPNAFDFGLC
With B1, the “GSTO2 immunoreactive protein levels” value came to 82.8 ± 1.6 and the “expression level relative to the level of the WT allozyme” value is on record as “approximately 80%”.

B2: Asn142Asp: GSTO2 allozyme having an aspartic acid at amino acid residue 142 in place of an asparagine residue (protein)
chain: B1 chain with I41V, N142D
B2: the “GSTO2 immunoreactive protein levels” value is 76.1 ± 3.0 and the “expression level relative to the level of the WT allozyme” value is “approximately 80%”.

B3: WT: reference (wild type) human GSTO2 polypeptide, SEQ ID NO:9 (protein)
chain: B1 chain with I41V
modifications: Homo sapien
As to B3, the “GSTO2 immunoreactive protein levels” value came out at 100 ± 2.3.

B4: Asn142Asp/Leu158Ile: double variant GSTO2 allozyme, Asn142Asp and Leu158Ile (protein)
chain: B1 chain with I41V, N142D, L158I
For B4, the “GSTO2 immunoreactive protein levels” value is listed as 15.2 ± 2.5 and the “allozyme level after transient expression (in words)” value (“allozyme level” for short) is given as “strikingly reduced”.

B5: Leu158Ile: GSTO2 allozyme having an isoleucine at amino acid 158 in place of a leucine residue (protein)
chain: B1 chain with I41V, L158I
With B5, the “GSTO2 immunoreactive protein levels” value amounted to 17.3 ± 1.7 and the “allozyme level” value was “strikingly reduced”.

B6: Cys130Tyr: GSTO2 allozyme having a tyrosine at amino acid residue 130 in place of a cysteine residue (protein)
chain: B1 chain with I41V, C130Y
For B6, the “GSTO2 immunoreactive protein levels” value is recorded as 49.4 ± 2.8 and the “allozyme level” value was “strikingly reduced”.
